{
  "source": "patent US20160158231A1",
  "about": "“PYRIMIDINE HYDROXY AMIDE COMPOUNDS FOR TREATING PERIPHERAL NEUROPATHY” (VIB VZW, priority 2014, published 2016)",
  "tested_on": "HDAC6 (acetylated α-tubulin) in Neuro2a cells",
  "assay": "Acetylated α-tubulin in Neuro2a cells (Western blot, staining): potency to inhibit HDAC6",
  "details": "different concentrations",
  "note": "Some of these results come from one statement about several compounds together. For at least one compound, name, drawing or mass did not settle the structure.",
  "data": [
    {"molecule": "O=C(NO)c1cnc(NC2(c3cccc(F)c3)CCCCC2)nc1", "note": "[Compound B, 2-((1-(3-fluorophenyl)cyclohexyl)amino)-N-hydroxypyrimidine-5-carboxamide]", "values": [
      {"measurement": "concentration from which acetylation of α-tubulin is increased", "result": "≥ 10", "unit": "nM"}
    ]},
    {"molecule": "CC(/C=C/C(=O)NO)=C\\[C@@H](C)C(=O)c1ccc(N(C)C)cc1", "note": "[TSA, Trichostatin A, reference compound]", "values": [
      {"measurement": "concentration from which acetylation of α-tubulin is increased", "result": "≥ 10", "unit": "nM"}
    ]}
  ]
}
